{"source": "patent US20060134063A1", "about": "“Agents for proliferating pancreatic beta-cells of the islets of langerhans, agents for suppressing apoptosis of said cells, and screening of candidate compounds for these agents” (priority 2000, published 2006)", "key": {"Reg protein": {"test_system": "Reg protein", "experiment": "Immunoblot of secreted Reg protein in RINm5F culture medium", "format": "cell-based, rat", "conditions": "24 h incubation with stimulants", "protocol": "The Reg protein levels in the RINm5F cultured media were examined after stimulation. After 24-hour incubation of the cells in a medium supplemented with stimulants, the medium was collected, and subjected to immunoblot analyses as described in Watanabe, T. et al. (1990) J. Biol. Chem., 265, 7432-7439. The medium of RINm5F cells was subjected to SDS polyacrylamide gel electrophoresis (SDS-PAGE) and electrotransferred to a PVDF membrane as described in Takasawa, S. et al. (1993) J. Biol. Chem., 268, 26052-26054. Western blotting was carried out using an anti-rat Reg monoclonal antibody (Terazono, K. et al. (1990) Diabetologia, 33, 250-252)."}, "Reg gene": {"test_system": "Reg gene", "experiment": "RT-PCR of Reg gene expression in RINm5F cells", "format": "cell-based, rat", "conditions": "24 h with stimulants", "protocol": "The Reg gene expression was analyzed by RT-PCR. The cells were harvested after 24 h of culturing in a medium supplemented with stimulants, and total RNA was prepared using cesium trifluoroacetate as described in Takasawa, S. et al. (1993) J. Biol. Chem., 268, 26052-26054. RT-PCR was performed using primers corresponding to nucleotides 23 to 43 and 572 to 593 of rat Reg mRNA (Terazono, K. et al. (1988) J. Biol. Chem., 263, 2111-2114)."}, "[1]": {"test_system": "5'-flanking region of the rat Reg gene", "experiment": "Reg promoter/luciferase reporter assay in RINm5F cells", "format": "cell-based", "conditions": "2,303-bp Reg 5'-flanking fragment; 24 h stimulation", "protocol": "A 2,303-bp fragment containing the 5′-flanking region of Reg gene was fused to the luciferase gene and transfected into RINm5F β-cells.\nSpecifically, luciferase reporter gene constructs were generated as described in Miyashita, H. et al. (1994) Biochim. Biophys. Acta, 1219, 241-243. RINm5F cells were seeded at 1×10^5 cells/well in 24-well dish. After 48 h, 3.0 μg of test plasmid and 0.2 μg of pCMV-SPORT β-gal (Life Technologies, Inc.) were transfected by lipofection (Felgner, J. H. et al. (1994) J. Biol. Chem., 269, 2550-2561) using DMRIE-C™ (Life Technologies, Inc.). After 24 h, the medium of each dish was replaced with fresh medium containing stimulants and incubated further for 24 h. Cells were harvested in 1 ml of ice-cold phosphate-buffered saline (PBS), washed twice with PBS, and extracts were prepared in extraction buffer (0.1 M potassium phosphate, pH 6.8, 1 mM DTT). The protein concentration was determined using a Coomassie reagent kit (Pierce) and bovine serum albumin as a standard. Luciferase activity was determined by a chemiluminescence substrate using a Pica Gene™ Luminescence Kit (Toyo Ink Mfg. Co, Ltd., Tokyo, Japan). β-galactosidase activity was determined using Aurora™ GAL-XE (ICN)."}}, "note": "At least one structure is not confirmed: it was looked up by name or label, or the drawing left a doubt.", "data": [{"smiles": "C[C@@H]1C[C@H]2[C@@H]3CCC4=CC(=O)C=C[C@]4(C)[C@@]3(F)[C@@H](O)C[C@]2(C)[C@@]1(O)C(=O)CO", "note": "[dexamethasone]", "values": [{"measurement": "Reg protein secretion into the medium", "setting": "Reg protein", "value": "did not induce Reg protein secretion"}, {"measurement": "Reg gene expression (Reg mRNA)", "setting": "Reg gene", "value": "no effect on Reg expression"}, {"measurement": "luciferase activity (result in words)", "setting": "[1]", "value": "ineffective"}]}]}
